Results from paper PMC5342555, “ATAD2 is an epigenetic reader of newly synthesized histone marks during DNA replication” (Oncotarget, 2016).
These are yes or no findings as the source states them, for the method shown. Binding seen in cells or lysates may run through a third protein. Some binding calls cover weakened binding; strength is not graded here. Sequences can lack the tags named with a protein.

Protein sequences, listed by entry. Tags and fused reporters are not part of them.
UniProt P45973: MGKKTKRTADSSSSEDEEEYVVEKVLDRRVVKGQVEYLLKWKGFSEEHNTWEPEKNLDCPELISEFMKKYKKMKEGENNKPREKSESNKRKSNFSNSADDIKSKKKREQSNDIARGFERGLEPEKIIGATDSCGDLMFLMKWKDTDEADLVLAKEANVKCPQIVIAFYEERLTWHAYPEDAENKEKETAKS

Molecular target: Heterochromatin Protein (HP) 1α, endogenous (human (endogenous in MCF7)) (UniProt P45973)
Test: co-IP; HP1α associated complex isolated from nuclear extract of MCF7 cells expressing tagGFP-ATAD2 WT with 2 μg HP1α antibodies on Protein G beads; Western blot

binding: binds
B1: tagGFP-tagged WT ATAD2 (protein, UniProt Q6PL18 1-1390)
chain: MVVLRSSLELHNHSAASATGSLDLSSDFLSLEHIGRRRLRSAGAAQKKPAATTAKAGDGSSVKEVETYHRTRALRSLRKDAQNSSDSSFEKNVEITEQLANGRHFTRQLARQQADKKKEEHREDKVIPVTRSLRARNIVQSTEHLHEDNGDVEVRRSCRIRSRYSGVNQSMLFDKLITNTAEAVLQKMDDMKKMRRQRMRELEDLGVFNETEESNLNMYTRGKQKDIQRTDEETTDNQEGSVESSEEGEDQEHEDDGEDEDDEDDDDDDDDDDDDDDEDDEDEEDGEEENQKRYYLRQRKATVYYQAPLEKPRHQRKPNIFYSGPASPARPRYRLSSAGPRSPYCKRMNRRRHAIHSSDSTSSSSSEDEQHFERRRKRSRNRAINRCLPLNFRKDELKGIYKDRMKIGASLADVDPMQLDSSVRFDSVGGLSNHIAALKEMVVFPLLYPEVFEKFKIQPPRGCLFYGPPGTGKTLVARALANECSQGDKRVAFFMRKGADCLSKWVGESERQLRLLFDQAYQMRPSIIFFDEIDGLAPVRSSRQDQIHSSIVSTLLALMDGLDSRGEIVVIGATNRLDSIDPALRRPGRFDREFLFSLPDKEARKEILKIHTRDWNPKPLDTFLEELAENCVGYCGADIKSICAEAALCALRRRYPQIYTTSEKLQLDLSSINISAKDFEVAMQKMIPASQRAVTSPGQALSTVVKPLLQNTVDKILEALQRVFPHAEFRTNKTLDSDISCPLLESDLAYSDDDVPSVYENGLSQKSSHKAKDNFNFLHLNRNACYQPMSFRPRILIVGEPGFGQGSHLAPAVIHALEKFTVYTLDIPVLFGVSTTSPEETCAQVIREAKRTAPSIVYVPHIHVWWEIVGPTLKATFTTLLQNIPSFAPVLLLATSDKPHSALPEEVQELFIRDYGEIFNVQLPDKEERTKFFEDLILKQAAKPPISKKKAVLQALEVLPVAPPPEPRSLTAEEVKRLEEQEEDTFRELRIFLRNVTHRLAIDKRFRVFTKPVDPDEVPDYVTVIKQPMDLSSVISKIDLHKYLTVKDYLRDIDLICSNALEYNPDRDPGDRLIRHRACALRDTAYAIIKEELDEDFEQLCEEIQESRKKRGCSSSKYAPSYYHVMPKQNSTLVGDKRSDPEQNEKLKTPSTPVACSTPAQLKRKIRKKSNWYLGTIKKRRKISQAKDDSQNAIDHKIESDTEETQDTSVDHNETGNTGESSVEENEKQQNASESKLELRNNSNTCNIENELEDSRKTTACTELRDKIACNGDASSSQIIHISDENEGKEMCVLRMTRARRSQVEQQQLITVEKALAILSQPTPSLVVDHERLKNLLKTVVKKSQNYNIFQLENLYAVISQCIYRHRKDHDKTSLIQKMEQEVENFSCSR
